Experimental data: article PMC13439184
No constants are given. Whether binding was seen depends on the method and setting. Binding seen in cells or lysates may run through a third protein. A yes stands for co-enrichment or nearness to the bait. Other partners may have been found.

Biological target: ARK1-3xHA (Aurora-related kinase 1, endogenously tagged) (Plasmodium berghei)
Assay: affinity purification with mass spectrometry; anti-HA immunoprecipitation of ARK1-3xHA from activated male-only fd1- gametocytes after incremental formaldehyde cross-linking (0.1% or 1% for 10 min at room temperature, quenched with glycine)

B1: CDPK4 (enzyme, UniProt P62345 1-528)
chain: MGQEMSTQSDMQNENQKGNKRNLKGSQGKNGLKERSTSISKEIVKNSFNNSKLRPGMFIQNSNVVFNEQYKGIKILGKGSFGEVILSKDKHTGHEYAIKVISKKHVKRKTDKQSLLREVELLKMLDHINIMKLYEFFEDNNYYYLVSDVYSGGELFDEIISRKRFYEVDAARIIKQVLSGITYMHKNNVVHRDLKPENILLETKNKEDMIIKIIDFGLSTHFEYSKKMKDKIGTAYYIAPDVLHGTYDEKCDIWSCGVILYILLSGCPPFNGSNEYDILKKVETGKYTFDLPQFKKISDKAKDLIKKMLMYTSAVRISARDALEHEWIRLMTSKDNVNIDIPSLELSITNIKQFQSTQKLAQAALLYMGSKLTTIDETKELTKIFKKMDKNGDGQLDRNELIIGYKELLKLKGDDTTDLDNAAIEVEVDQILSSIDLDQNGYIEYSEFLTVAIDRKLLLSTERLEKAFKLFDKDGSGKISANELAQLFGLGDVSSDCWKTVLKEVDQNNDGEIDFKEFRDMLIKLCNY
With B1 the binding was “binds”.
